In publication PMC7348769 one finds binding data, which are given here for two molecules.

By UniProt entry, the sequences of proteins in these tests, tags left out. Where a name states a change or a piece, a line headed by the entry shows the natural chain unless it says otherwise.
UniProt Q15049: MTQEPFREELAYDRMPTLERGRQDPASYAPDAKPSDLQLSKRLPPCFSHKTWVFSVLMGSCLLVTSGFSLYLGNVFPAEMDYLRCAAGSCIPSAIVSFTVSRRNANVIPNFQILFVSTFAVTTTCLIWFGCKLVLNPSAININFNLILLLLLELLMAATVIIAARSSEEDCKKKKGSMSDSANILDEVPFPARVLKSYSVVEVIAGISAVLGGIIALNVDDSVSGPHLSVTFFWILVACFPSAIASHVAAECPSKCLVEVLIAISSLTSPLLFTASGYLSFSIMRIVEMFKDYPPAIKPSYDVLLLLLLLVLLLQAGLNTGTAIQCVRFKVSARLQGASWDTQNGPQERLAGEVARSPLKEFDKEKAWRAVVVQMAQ
UniProt P17302: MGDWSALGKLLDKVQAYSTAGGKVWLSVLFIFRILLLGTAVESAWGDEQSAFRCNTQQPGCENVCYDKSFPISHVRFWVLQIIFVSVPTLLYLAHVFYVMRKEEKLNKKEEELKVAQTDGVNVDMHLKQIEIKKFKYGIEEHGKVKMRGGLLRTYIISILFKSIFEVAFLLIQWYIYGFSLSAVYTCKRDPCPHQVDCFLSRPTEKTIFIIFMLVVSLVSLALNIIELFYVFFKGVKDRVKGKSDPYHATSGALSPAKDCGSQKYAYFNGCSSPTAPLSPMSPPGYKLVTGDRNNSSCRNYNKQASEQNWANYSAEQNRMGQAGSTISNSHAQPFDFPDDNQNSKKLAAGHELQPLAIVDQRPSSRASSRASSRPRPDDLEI

Results are given in words; binding and its absence hold for the method and conditions named. In cells and extracts the contact can be indirect. A result given as binding can be weak or reduced; the word gives no strength.

This experiment has as its target MLC1 carrying the pathological mutation c.178-10 t>a (Pt1), X-press tagged (human) (UniProt Q15049). In words: co-IP; anti-Xpress mAb and protein A/G PLUS agarose beads on lysates of U251 cells expressing X-press-MLC1; binding buffer 20 mM HEPES pH 7.4, 150 mM NaCl, 1 mM EDTA, 1 mM EGTA, 0.1% Triton X-100, 0.1% sodium deoxycholate; overnight at 4 °C; Western blot. On the technique in general: In western blotting, separated proteins are transferred to a membrane and probed.

On to Connexin 43 (from UniProt P17302 1-382), for which the binding result was “no binding”.

B1: GlialCAM (glial cell adhesion molecule) (protein, UniProt Q14CZ8 34-416)
chain: VNITSPVRLIHGTVGKSALLSVQYSSTSSDRPVVKWQLKRDKPVTVVQSIGTEVIGTLRPDYRDRIRLFENGSLLLSDLQLADEGTYEVEISITDDTFTGEKTINLTVDVPISRPQVLVASTTVLELSEAFTLNCSHENGTKPSYTWLKDGKPLLNDSRMLLSPDQKVLTITRVLMEDDDLYSCMVENPISQGRSLPVKITVYRRSSLYIILSTGGIFLLVTLVTVCACWKPSKRKQKKLEKQNSLEYMDQNDDRLKPEADTLPRSGEQERKNPMALYILKDKDSPETEENPAPEPRSATEPGPPGYSVSPAVPGRSPGLPIRSARRYPRSPARSPATGRTHSSPPRAPSSPGRSRSASRTLRTAGVHIIREQDEAGPVEISA
Regarding B1, the binding result was “binds”.
